From PubChem BioAssay record AID1159506 (NCATS, 2015).

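Genome-wide siRNA knockdown in TC32 Ewing sarcoma cells, comparing luciferase light from an NR0B1-promoter reporter with a CMV-promoter reporter 48 hours after transfection.
Each siRNA was applied at 20 nM.
A z-score of the log NR0B1-over-CMV signal, less the median of siRNAs with the same seed; more negative means a stronger specific loss of the NR0B1 reporter.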

The strongest results of the screen are mostly left out here.
Sequences are the guide (antisense) strand, without overhang.

For UUCGUUUCCAUGCCCAUAC against RAD51-AS1 the result was seed-corrected z-score 1.497.
For UUGGUAACGACUCAGUAGC against TULP2 the result was seed-corrected z-score 0.5117.
For ACUGUCUCCACAUUGAACC against ARF3 the result was seed-corrected z-score 0.6744.
For UGUAGUAAUAUUGUCUACC against ARHGAP12 the result was seed-corrected z-score 1.092.
For AUUGUGAUGUUCGAUGCCC against PLXNC1 the result was seed-corrected z-score -0.07708.
For UUCAAGGUAGGACUCAUCC against EXOSC10 the result was seed-corrected z-score 0.8174.
For UAAGGUUUUGUUCGUGUCC against RASD1 the result was seed-corrected z-score 0.01154.
For UAGUGGGUAAGUAGAGGAC against KRTAP26-1 the result was seed-corrected z-score -0.1298.
For UGAGGGUCCACUAUAACUG against OR4K2 the result was seed-corrected z-score -0.1269.
For UCUUCUUCACGGCCGACUC against RPL23AP25 the result was seed-corrected z-score -0.641.
For UAGAUAAAAGGAUUGAGCA against OR1L8 the result was seed-corrected z-score 0.984.
For UCCUCUUAAGGCUCCAUCA against AAMDC the result was seed-corrected z-score 0.6701.
For UGAGUAGGAGAUCAUGUCG against ABLIM2 the result was seed-corrected z-score 0.2624.
For UUUUAACUUCAUACAGUUG against RBM22P1 the result was seed-corrected z-score 1.262.
For UUAUCCAUUCGCGAAAAUC against PGBD4 the result was seed-corrected z-score 0.7463.
For UUUUGGAAGUGUUGUAGAU against TREML3P the result was seed-corrected z-score 0.3402.
For UCAUCGGGUAUUAAACGGC against RNF125 the result was seed-corrected z-score -0.9542.
For UUCUUUGACCAGUAUCUCC against GDF3 the result was seed-corrected z-score 1.078.
For AUAGUCCUAGGAGGUGUCU against MZF1 the result was seed-corrected z-score -0.2423.
For UCACAUACCUGCUUCCUUG against SRA1 the result was seed-corrected z-score -0.03383.
For UAAGAGUGUCGUGAUAAUU against DNASE2B the result was seed-corrected z-score 1.125.
For UUCUCGUUGCUUGUUAACC against ALS2CR11 the result was seed-corrected z-score -0.1637.
For UUUGAGGUGACUGAGGCUC against PLAGL1 the result was seed-corrected z-score -0.05206.
For AUUGUGAGCCUUGCGGAUG against ZBTB3 the result was seed-corrected z-score 0.3434.
For UUAUGUAAGUUCAUGAGGG against WNT2B the result was seed-corrected z-score 0.8842.
For AGUCAGACCAUCCACACCC against COL9A3 the result was seed-corrected z-score 0.1331.
For UUGUAAGCAGUUUAAGUCC against SSRP1 the result was seed-corrected z-score 0.0662.
For UAGAAUACCACACUGUCAG against PRDM13 the result was seed-corrected z-score 0.8836.
For UUCUGUCCUUCCACGGUGG against SHARPIN the result was seed-corrected z-score -0.6407.
For AGUGUUCUGAACAAGGUCC against HPCAL4 the result was seed-corrected z-score 2.204.
For AGCAGUGGCAUAGUAGUCC against SSTR4 the result was seed-corrected z-score -1.086.
For UCUGAUUGUUGAUACAUGC against MAATS1 the result was seed-corrected z-score -1.023.
For AUUACUACAAGUAAAGAGC against GPR137C the result was seed-corrected z-score -0.4961.

For reference, 2 entries once more:

| strand | target gene | seed-corrected z-score |
|---|---|---|
| `UCUGAUUGUUGAUACAUGC` | MAATS1 | -1.023 |
| `AGCAGUGGCAUAGUAGUCC` | SSTR4 | -1.086 |